Data from article PMC7445403.
Results are given in words; binding and its absence hold for the method and conditions named. Binding seen in cells or lysates may run through a third protein. Some binding calls cover weakened binding; strength is not graded here.

Amino acid sequences for entries named in this document (tags omitted).
UniProt P25490: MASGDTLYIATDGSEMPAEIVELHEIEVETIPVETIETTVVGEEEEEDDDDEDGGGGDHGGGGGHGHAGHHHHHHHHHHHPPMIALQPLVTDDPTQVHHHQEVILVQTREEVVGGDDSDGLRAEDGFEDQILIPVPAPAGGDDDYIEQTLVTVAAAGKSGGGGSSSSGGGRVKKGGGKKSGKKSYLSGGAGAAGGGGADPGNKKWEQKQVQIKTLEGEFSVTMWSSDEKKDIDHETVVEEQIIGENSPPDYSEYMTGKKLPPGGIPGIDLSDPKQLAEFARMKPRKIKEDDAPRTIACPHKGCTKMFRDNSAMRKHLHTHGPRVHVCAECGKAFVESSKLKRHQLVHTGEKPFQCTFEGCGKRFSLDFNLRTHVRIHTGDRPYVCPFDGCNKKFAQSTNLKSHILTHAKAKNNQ
UniProt Q13547: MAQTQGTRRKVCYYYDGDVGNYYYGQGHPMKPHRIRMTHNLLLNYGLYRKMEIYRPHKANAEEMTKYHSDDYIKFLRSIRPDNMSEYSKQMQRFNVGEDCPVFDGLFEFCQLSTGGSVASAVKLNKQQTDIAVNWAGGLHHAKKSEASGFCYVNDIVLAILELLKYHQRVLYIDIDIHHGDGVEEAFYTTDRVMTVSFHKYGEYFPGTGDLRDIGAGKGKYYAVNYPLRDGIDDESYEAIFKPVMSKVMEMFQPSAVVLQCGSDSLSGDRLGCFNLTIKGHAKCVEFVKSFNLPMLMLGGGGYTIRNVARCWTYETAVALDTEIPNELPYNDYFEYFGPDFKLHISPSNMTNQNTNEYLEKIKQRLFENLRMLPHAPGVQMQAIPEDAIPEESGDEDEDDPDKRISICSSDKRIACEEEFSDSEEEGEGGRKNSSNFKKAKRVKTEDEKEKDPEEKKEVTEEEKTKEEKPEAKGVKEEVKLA

Biological target: Yin Yang 1 (YY1) (human (endogenous in HCC cells)) (UniProt P25490)
Assay: co-IP; 1-2 ug YY1 antibody added to 300 uL cell lysate for 30 minutes at 4°C, beads at 4°C overnight, washed three times with PBS, analysed by Western blotting; endogenous proteins of HCC cells

- binding: binds
Substance: HDAC1 (from UniProt Q13547 1-482)
